Reference: patent publication US20050118601

Chains of the proteins cited; added tags and fusions are not shown. Where a name states a change or a piece, a line headed by the entry shows the natural chain unless it says otherwise. A line that says so, or that is headed by a name, gives the form on record, which may keep a tag or linker.
UniProt P28700: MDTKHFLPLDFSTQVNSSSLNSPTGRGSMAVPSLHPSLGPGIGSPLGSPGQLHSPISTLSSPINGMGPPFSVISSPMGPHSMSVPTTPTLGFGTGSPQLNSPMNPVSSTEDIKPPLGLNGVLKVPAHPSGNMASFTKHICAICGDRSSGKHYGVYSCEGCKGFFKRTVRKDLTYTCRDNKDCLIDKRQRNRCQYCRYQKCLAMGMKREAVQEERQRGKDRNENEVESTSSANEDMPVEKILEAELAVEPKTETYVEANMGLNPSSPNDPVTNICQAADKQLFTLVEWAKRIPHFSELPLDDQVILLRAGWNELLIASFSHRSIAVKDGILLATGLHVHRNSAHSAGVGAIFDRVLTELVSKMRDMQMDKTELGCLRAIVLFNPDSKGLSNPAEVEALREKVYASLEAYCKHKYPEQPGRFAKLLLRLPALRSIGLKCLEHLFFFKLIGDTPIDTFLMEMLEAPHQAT
UniProt P19793: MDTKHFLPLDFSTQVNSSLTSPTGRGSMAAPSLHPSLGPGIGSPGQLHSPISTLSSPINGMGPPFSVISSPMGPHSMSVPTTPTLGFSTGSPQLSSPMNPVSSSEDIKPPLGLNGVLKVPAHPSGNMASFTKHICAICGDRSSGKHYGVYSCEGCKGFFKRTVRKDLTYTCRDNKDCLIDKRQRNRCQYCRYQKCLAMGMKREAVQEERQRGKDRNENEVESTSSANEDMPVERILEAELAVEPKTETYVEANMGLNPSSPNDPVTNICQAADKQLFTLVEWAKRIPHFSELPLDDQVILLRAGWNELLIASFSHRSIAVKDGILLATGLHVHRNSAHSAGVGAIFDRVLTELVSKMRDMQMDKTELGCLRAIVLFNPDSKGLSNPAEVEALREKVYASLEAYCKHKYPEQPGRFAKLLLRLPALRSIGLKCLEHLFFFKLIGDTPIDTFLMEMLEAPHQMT
PXR/RXR heterodimer (Mus musculus), one chain, as listed by the source: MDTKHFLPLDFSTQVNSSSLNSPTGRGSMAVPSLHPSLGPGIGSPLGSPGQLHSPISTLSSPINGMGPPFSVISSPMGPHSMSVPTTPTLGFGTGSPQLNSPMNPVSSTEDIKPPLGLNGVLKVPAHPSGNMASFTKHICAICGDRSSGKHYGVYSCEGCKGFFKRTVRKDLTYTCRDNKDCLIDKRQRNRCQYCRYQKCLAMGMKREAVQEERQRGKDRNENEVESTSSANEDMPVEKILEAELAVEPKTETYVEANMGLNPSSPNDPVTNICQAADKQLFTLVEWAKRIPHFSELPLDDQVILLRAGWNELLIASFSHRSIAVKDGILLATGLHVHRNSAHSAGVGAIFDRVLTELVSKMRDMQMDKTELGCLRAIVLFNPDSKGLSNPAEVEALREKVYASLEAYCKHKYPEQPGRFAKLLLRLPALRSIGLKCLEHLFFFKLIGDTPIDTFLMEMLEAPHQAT
PXR/RXRalpha heterodimer (Homo sapiens), one chain, as listed by the source: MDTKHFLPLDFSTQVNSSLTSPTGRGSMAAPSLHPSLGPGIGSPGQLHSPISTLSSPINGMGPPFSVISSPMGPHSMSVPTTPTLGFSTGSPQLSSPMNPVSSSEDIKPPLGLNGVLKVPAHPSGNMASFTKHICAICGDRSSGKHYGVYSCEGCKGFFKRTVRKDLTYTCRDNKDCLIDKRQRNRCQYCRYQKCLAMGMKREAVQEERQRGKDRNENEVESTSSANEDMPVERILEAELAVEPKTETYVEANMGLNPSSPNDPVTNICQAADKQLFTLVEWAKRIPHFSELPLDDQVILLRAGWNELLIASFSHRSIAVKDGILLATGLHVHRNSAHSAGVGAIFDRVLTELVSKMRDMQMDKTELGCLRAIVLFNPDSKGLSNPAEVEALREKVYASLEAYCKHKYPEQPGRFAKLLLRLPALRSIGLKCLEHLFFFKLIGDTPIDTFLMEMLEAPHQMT

Key:
CXR (Gallus gallus) = molecular target: T1, CXR (Gallus gallus) (UniProt A0A8V1AGS4); assay: EMSA; conditions: CXR alone; protein translated in vitro; protein details: TNT T7 Quick Coupled, pSG5; label: 32P
T1 sequence (looked up, limits assumed): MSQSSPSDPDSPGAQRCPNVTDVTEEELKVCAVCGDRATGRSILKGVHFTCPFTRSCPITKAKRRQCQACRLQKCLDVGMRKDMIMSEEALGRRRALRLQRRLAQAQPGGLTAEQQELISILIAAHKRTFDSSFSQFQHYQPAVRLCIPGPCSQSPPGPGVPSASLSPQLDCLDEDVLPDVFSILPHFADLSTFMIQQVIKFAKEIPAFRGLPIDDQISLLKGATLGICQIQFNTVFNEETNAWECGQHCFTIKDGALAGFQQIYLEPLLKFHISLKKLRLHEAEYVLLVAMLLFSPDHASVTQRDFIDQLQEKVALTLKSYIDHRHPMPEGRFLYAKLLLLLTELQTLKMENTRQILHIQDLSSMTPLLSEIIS

[1] = system: PXR/RXR heterodimer (Mus musculus); assay: EMSA; conditions: 40 mM KCl, pH 8.0, poly(dI-dC), room temperature; protein translated in vitro; protein details: TNT T7 Quick Coupled; label: 32P
RXR (Mus musculus) = RXR (Mus musculus) (UniProt P28700); assay: EMSA; conditions: RXR alone; text for FIG. 15A says bound, likely a missing negation; protein translated in vitro; protein details: TNT T7 Quick Coupled; label: 32P
[2] = system: CAR/RXR heterodimer (Mus musculus); assay: EMSA; conditions: protein translated in vitro; protein details: TNT T7 Quick Coupled; label: 32P
CAR (Mus musculus) = molecular target: T2, CAR (Mus musculus) (UniProt O35627); assay: EMSA; conditions: CAR alone; protein translated in vitro; protein details: TNT T7 Quick Coupled; label: 32P
T2 sequence (looked up, limits assumed): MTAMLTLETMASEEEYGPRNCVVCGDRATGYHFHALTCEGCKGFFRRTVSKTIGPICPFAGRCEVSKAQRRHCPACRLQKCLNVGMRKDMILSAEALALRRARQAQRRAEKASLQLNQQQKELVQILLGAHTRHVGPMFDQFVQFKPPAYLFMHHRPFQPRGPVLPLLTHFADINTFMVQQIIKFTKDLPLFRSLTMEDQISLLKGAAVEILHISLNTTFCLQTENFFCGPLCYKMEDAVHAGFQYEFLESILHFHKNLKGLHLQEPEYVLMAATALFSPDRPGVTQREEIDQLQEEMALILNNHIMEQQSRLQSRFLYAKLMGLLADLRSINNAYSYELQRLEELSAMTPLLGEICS

PXR (Mus musculus) = molecular target: T3, PXR (Mus musculus) (UniProt O54915); assay: activity in cells; conditions: PCN, CV-1 cells, protein in cells, protein details: pSG5 expression
T3 sequence (looked up, limits assumed): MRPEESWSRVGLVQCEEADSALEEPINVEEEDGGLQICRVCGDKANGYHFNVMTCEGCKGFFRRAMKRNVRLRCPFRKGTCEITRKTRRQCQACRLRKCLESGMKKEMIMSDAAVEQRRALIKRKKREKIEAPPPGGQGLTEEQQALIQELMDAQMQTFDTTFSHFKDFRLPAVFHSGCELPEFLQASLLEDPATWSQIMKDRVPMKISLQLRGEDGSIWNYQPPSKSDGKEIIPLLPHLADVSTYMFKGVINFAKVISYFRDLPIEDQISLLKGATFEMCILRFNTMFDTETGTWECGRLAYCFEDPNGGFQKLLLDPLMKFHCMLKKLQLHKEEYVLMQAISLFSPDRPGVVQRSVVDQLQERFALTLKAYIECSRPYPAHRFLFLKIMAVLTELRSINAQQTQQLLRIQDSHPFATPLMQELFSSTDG

PXR (Homo sapiens) = molecular target: T4, PXR (Homo sapiens) (UniProt O75469); assay: EMSA; conditions: PXR alone; protein translated in vitro; protein details: TNT reticulocyte lysate; label: radiolabel
T4 sequence (looked up, limits assumed): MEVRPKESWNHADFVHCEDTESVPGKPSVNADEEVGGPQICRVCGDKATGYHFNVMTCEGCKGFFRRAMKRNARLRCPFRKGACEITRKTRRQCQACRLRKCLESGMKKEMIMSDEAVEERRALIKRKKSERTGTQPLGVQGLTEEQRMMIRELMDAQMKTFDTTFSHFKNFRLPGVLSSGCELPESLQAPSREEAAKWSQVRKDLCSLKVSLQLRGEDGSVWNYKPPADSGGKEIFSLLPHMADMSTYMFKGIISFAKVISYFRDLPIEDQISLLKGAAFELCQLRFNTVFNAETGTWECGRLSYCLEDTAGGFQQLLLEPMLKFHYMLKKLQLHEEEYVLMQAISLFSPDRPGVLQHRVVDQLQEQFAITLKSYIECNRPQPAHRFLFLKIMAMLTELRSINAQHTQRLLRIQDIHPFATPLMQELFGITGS

RXRalpha (Homo sapiens) = RXRalpha (Homo sapiens) (UniProt P19793); assay: EMSA; conditions: RXRalpha alone; protein translated in vitro; protein details: TNT reticulocyte lysate; label: radiolabel
CAR (Homo sapiens) = molecular target: T5, CAR (Homo sapiens) (UniProt Q14994); assay: EMSA; conditions: CAR alone; protein translated in vitro; protein details: TNT reticulocyte lysate; label: radiolabel
T5 sequence (looked up, limits assumed): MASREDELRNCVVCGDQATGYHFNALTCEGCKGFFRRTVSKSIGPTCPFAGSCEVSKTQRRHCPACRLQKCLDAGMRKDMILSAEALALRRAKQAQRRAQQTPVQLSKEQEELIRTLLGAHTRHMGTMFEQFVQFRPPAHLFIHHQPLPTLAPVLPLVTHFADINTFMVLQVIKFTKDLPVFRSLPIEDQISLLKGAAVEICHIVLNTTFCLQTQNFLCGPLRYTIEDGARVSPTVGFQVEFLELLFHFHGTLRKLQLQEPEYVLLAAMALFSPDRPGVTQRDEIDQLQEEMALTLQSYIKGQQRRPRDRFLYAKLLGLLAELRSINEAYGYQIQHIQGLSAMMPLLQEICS

[3] = system: PXR/RXRalpha heterodimer (Homo sapiens); assay: EMSA; conditions: protein translated in vitro; protein details: TNT reticulocyte lysate; label: radiolabel
[4] = system: CAR/RXRalpha heterodimer (Homo sapiens); assay: EMSA; conditions: protein translated in vitro; protein details: TNT reticulocyte lysate; label: radiolabel

Sequence: CTGCCTCCAGTCCTGAACTTTCTCTGCTGGGATGAGCAGAGTTCACGCTCGGCTGAACTCGTGACTGTGTCAACAGGGGGCATGAAGATCAGCACCAGGCAAAGGTGAGCGGAGTGCACAAGAATGAGGCAGAGACCTTTGGGACAAAGAGTTCCCCACCCGTGGGG (double strand) [167 bp ADRES]
- binding result (CXR (Gallus gallus)): no binding

Sequence: GGGCTCCATCGGCCTCTTCAGGTTATTGCTATGTTCAACTCGTGTGACCTTCCTCCCTGTTTTCAAGGTTCTGATAACAAACTTCTAGGACAGCCTGGTGACCTTTGGCTCAGCTTCCTCTTTAAACTCCGGTGGCTTTTGCTTCATTGCCTAGTTGTTACCCAGCAGTAAAGATC (double strand) [176 bp ADRES]
- binding result (CXR (Gallus gallus)): no binding

Sequence: GTGGCTGGGTTGGGATGGGATGGGAAGGCTTGTGTCTCTCTGATTCCTAGTCCAGTCAGAACCTTCTGGCTTCTGCCATGAGACAGCCTATGAGCTCATCAGGTTCCTGGTGGAGAGCTGGGTGAACCGAGTTCGTTTGCACTGCCTTGGCCTGTGTGTGGCTTCAGGAACAGGTCATGCTCCAGGATTTAGGACACAGGTTAGCTGATAAGGCCCATGGAGCCGGTGATATGACCCGCAGGGTCACTCCCTCTGCCCAAGTCTAGATACTTGTTTCCCTCTTTAGACTCCAGATCAAGGACTCCAGATCTGTCATGGACTCAGAAAACCCCCCAGTACCACCCCACCCCCGCTGCTCCCTCCTATGAT (double strand) [369 bp ADRES]
- binding result [1]: binds
- binding result (RXR (Mus musculus)): no binding
- binding result [2]: binds
- binding result (CAR (Mus musculus)): no binding
- activity on this sequence (fold induction) (PXR (Mus musculus)): 5.6

Sequence: TCTGGCAGTCAGACAGGCCTAAGCTAAACCTTTCCCCCCCAGCTACCCACCAGGGTCATCCCCAAGCCAGGTCAGGGCCAATGGAGGTTGGGGTGGAGAAGACAGGCTTGGCCCTATTTCCTGCCCAACTCAGAACCTTCTGGTTTCTGCCACAGGATGCCTTGCAAGCTTATCGGGGTCACTGTGGGCAGCTGGGTGAGCTAAGTTCATCTGTGCTGCCGTGACCTCTGTGCAGATGCA (double strand) [hA240]
- binding result (PXR (Homo sapiens)): no binding
- binding result (RXRalpha (Homo sapiens)): no binding
- binding result (CAR (Homo sapiens)): no binding
- binding result [3]: binds
- binding result [4]: binds

For part of these data: Negatives hold for the conditions tested. For part of these data: Protein sequences can lack the tags named with them. For part of these data: The exact form of at least one protein or probe is not confirmed.
